{"source": "PubChem BioAssay AID540256", "about": "(National Center for Advancing Translational Sciences (NCATS), 2011)", "note": "In all, about 300,000 compounds went through this assay and about 3,700 (1.2%) were called active. Inconclusive means that the source gave no clear call. Such entries were picked first, then a sample of the others. The call rests on the fitted dose curve; tested in HEK293 cells. Potencies of inconclusive entries are doubtful fits and often do not repeat. On the % scale 0 is the no-effect control and ±100 the full control effect; potency means the concentration at half of the fitted maximal effect.", "data": [{"assay": "qHTS for Inhibitors of binding or entry into cells for Lassa Virus; further: nearly all actives have a fitted effect of over 50% in size", "settings": "Lassa virus pseudotype entry inhibition, cell reporter; activity change, negative = inhibition: at 37.9 µM (top of the series) unless noted", "values": [{"smiles": "Cc1ccc(NC(=O)C2COc3ccccc3O2)cc1C", "note": "(stereo unspecified)", "activity change, negative = inhibition": "inactive: 3.38%"}, {"smiles": "O=C(COC(=O)c1ccc(NS(=O)(=O)c2cccs2)cc1O)NCc1ccccc1", "Potency": "inconclusive: 3.55 µM [inhibitor, partial curve, poor fit]"}, {"smiles": "CC1(C)Oc2ccc3ccc(=O)oc3c2/C(=C/Nc2cccc(O)c2)C1=O", "Potency": "inconclusive: 25.1 µM [inhibitor, single point]"}, {"smiles": "CCCOc1ccc(C(=O)C(CCC(CNCC)C(=O)c2ccc(OCCC)cc2)CNCC)cc1", "note": "(stereo unspecified)", "Potency": "active: 13 µM"}, {"smiles": "COc1cccc2c3cccc(OC)c3c3[nH]cnc3c12", "Potency": "inconclusive: 1.41 µM [activator, single point]"}, {"smiles": "CC(C)c1ccc(/C=C2\\C(=O)N(CCN3CCOCC3)C(=S)N2C)cc1", "Potency": "inconclusive: 2.24 µM [inhibitor, partial curve, poor fit]"}, {"smiles": "CC(C)(C)Nc1nc(N2CCCC2)nc(N2CCCC2)n1", "Potency": "inconclusive: 3.16 µM [inhibitor, partial curve, poor fit]"}, {"smiles": "CCc1ccc(C(=O)/C=C/c2ccc([N+](=O)[O-])o2)cc1", "Potency": "inconclusive: 35.5 µM [inhibitor, single point]"}, {"smiles": "COc1ccc(C(=O)C2CCCN(Cc3cc(Cl)ccc3O)C2)c(OC)c1", "note": "(stereo unspecified)", "Potency": "inconclusive: 35.5 µM [inhibitor, single point]"}, {"smiles": "O=C1C=CC(=O)N1Cc1ccncc1", "activity change, negative = inhibition": "inactive: 9.47%"}, {"smiles": "Cc1sc2ncnc(SCC(=O)NC(C)(C)C)c2c1C", "Potency": "inconclusive: 7.08 µM [inhibitor, partial curve]"}, {"smiles": "O=C(COc1ccccc1)Nc1ccc(Cl)c(-c2nc3ncccc3o2)c1", "activity change, negative = inhibition": "inactive: -9.5%"}, {"smiles": "Cc1nn(-c2ccccc2)c(N)c1N=Nc1ccc(Cl)cc1", "Potency": "inconclusive: 35.5 µM [inhibitor, single point]"}, {"smiles": "CCS(=O)(=O)Nc1cccc(C2=NN(S(=O)(=O)c3ccc(F)cc3)C(c3cccs3)C2)c1", "note": "(stereo unspecified)", "Potency": "inconclusive: 22.4 µM [inhibitor, single point]"}, {"smiles": "O=[N+]([O-])c1cc(-c2nc3nc4ccccc4nc3n2CCc2ccccc2)cc([N+](=O)[O-])c1", "Potency": "inconclusive: 13 µM [activator, single point]"}, {"smiles": "Cc1cc(=O)n(Cc2ccc(Br)cc2F)c2c1c(C)nn2-c1ccccc1", "activity change, negative = inhibition": "inactive: -3.75% [at 46.1 µM]"}, {"smiles": "CCOC(=O)COc1ccc2c(c1)c(C(C)=O)c(C)n2-c1ccccc1", "Potency": "inconclusive: 0.708 µM [inhibitor, full curve]"}, {"smiles": "CCOc1cccc(/C=N/Nc2ccc(S(=O)(=O)N(CC)CC)cn2)c1O", "Potency": "inconclusive: 0.411 µM [inhibitor, full curve]"}, {"smiles": "CCOC(=O)c1nc(N/N=C/c2ccccc2)sc1Br", "Potency": "inconclusive: 12.6 µM [activator, partial curve, poor fit]"}, {"smiles": "O=S(=O)(c1ccc2nc(Nc3ccc(Br)cc3F)ccc2c1)N1CCCCC1", "activity change, negative = inhibition": "inactive: -0.0238% [at 46.1 µM]"}, {"smiles": "Cc1cccn2c(=O)c(C=NCc3ccco3)c(Nc3ccc(SC(F)F)cc3)nc12", "Potency": "active: 9.2 µM"}, {"smiles": "O=C(COc1ccccc1Cl)Nc1ccc2nc(SCC(=O)N3CCOCC3)sc2c1", "activity change, negative = inhibition": "inactive: 2.84% [at 46.1 µM]"}, {"smiles": "CC1CCC(C(C)C)C(OCC(O)CN2CCN(Cc3ccccc3)CC2)C1", "note": "(stereo unspecified)", "Potency": "active: 8.91 µM"}, {"smiles": "CS(=O)(=O)N1Cc2ccccc2CC1C(=O)Nc1ccccc1C(N)=O", "note": "(stereo unspecified)", "Potency": "inconclusive: 2.91 µM [activator, partial curve, poor fit]"}, {"smiles": "O=C(c1ccc(Cl)cc1)C1CCCN(Cc2cccn2-c2cccnc2)C1", "note": "(stereo unspecified)", "activity change, negative = inhibition": "inactive: 0.198%"}, {"smiles": "Cc1c(C(C)C)c(=O)n(-c2ccc(S(=O)(=O)NC3CCCCC3)cc2)n1C", "Potency": "inconclusive: 2.82 µM [inhibitor, partial curve, poor fit]"}, {"smiles": "CC(C)(C)c1ccccc1OCCCCN1CCCC1", "activity change, negative = inhibition": "inactive: -25%"}, {"smiles": "CCC(=O)c1ccc(OCC(O)CN2CC(C)OC(C)C2)cc1", "note": "(stereo unspecified)", "Potency": "inconclusive: 18.3 µM [inhibitor, single point]"}, {"smiles": "O=[N+]([O-])c1ccc(Sc2cc[n+]([O-])c3ccccc23)c([N+](=O)[O-])c1", "Potency": "inconclusive: 35.5 µM [inhibitor, single point]"}, {"smiles": "Cc1occc1C(=O)NCCCc1ccccc1", "Potency": "inconclusive: 0.224 µM [activator, full curve, poor fit]"}, {"smiles": "O=c1c2ccc(Cl)cc2[nH]c(=S)n1Cc1cccnc1", "Potency": "inconclusive: 0.112 µM [activator, full curve, poor fit]"}, {"smiles": "C=C1CCC[C@]2(C)C[C@H]3OC(=O)C(CNC(C)CCCC(C)C)[C@H]3CC12", "note": "(stereo partly specified)", "Potency": "inconclusive: 12.6 µM [inhibitor, single point]"}, {"smiles": "Cc1ccc(C2Nc3cccc4cccc(c34)N2)s1", "activity change, negative = inhibition": "inactive: 6.27%"}, {"smiles": "Cc1cc(C)c2cc(CN(Cc3ccc4c(c3)OCO4)Cc3nnnn3Cc3ccco3)c(=O)[nH]c2c1", "Potency": "inconclusive: 8.91 µM [inhibitor, partial curve, poor fit]"}, {"smiles": "CCN(CC)S(=O)(=O)c1ccc(/C=C/C(=O)Nc2ccc(F)c(F)c2F)cc1", "Potency": "inconclusive: 2.91 µM [inhibitor, full curve]"}, {"smiles": "CCN(C(=O)c1c(C)oc2ncnc(N3CCCCC3)c12)c1cc(C)ccc1C", "activity change, negative = inhibition": "inactive: 21% [at 46.1 µM]"}, {"smiles": "CC(=O)Cc1nsc(NC(=O)c2ccco2)n1", "activity change, negative = inhibition": "inactive: 28.9%"}, {"smiles": "CCOC(=O)c1ccc(NC(=O)CC2OCCN(CC)C2=O)cc1", "note": "(stereo unspecified)", "activity change, negative = inhibition": "inactive: -4.19%"}, {"smiles": "CC(C)(C)n1nnnc1C(c1cccnc1)N1CCOCC1", "note": "(stereo unspecified)", "activity change, negative = inhibition": "inactive: 7.95% [at 46.1 µM]"}, {"smiles": "O=c1ccccn1CCOc1ccccc1Cl", "Potency": "inconclusive: 20 µM [activator, partial curve, poor fit]"}, {"smiles": "Cc1ccc(N(Cc2cccs2)C(=O)c2ccc(OC(C)C)cc2)cc1", "Potency": "inconclusive: 35.5 µM [inhibitor, single point]"}, {"smiles": "COc1ccc2c(CNC3CCC(C)CC3)c(C(=O)O)n(Cc3ccc(F)cc3)c2c1", "note": "(stereo unspecified)", "activity change, negative = inhibition": "inactive: 0.669% [at 46.1 µM]"}, {"smiles": "OCCCNCc1ccc(-c2ccccc2)cc1", "activity change, negative = inhibition": "inactive: 0.502%"}, {"smiles": "COc1cccc(OCCSc2nc3ccccc3n2CC(=O)N2CCOCC2)c1", "activity change, negative = inhibition": "inactive: 2.98% [at 46.1 µM]"}, {"smiles": "COc1ccc(OC)c(S(=O)(=O)N2CCC(c3nc4ccccc4[nH]3)CC2)c1", "activity change, negative = inhibition": "inactive: -22.1%"}, {"smiles": "COCCNC(=O)c1ccc(Cn2c(SCC(N)=O)nc3ccccc3c2=O)cc1", "activity change, negative = inhibition": "inactive: 20.1% [at 46.1 µM]"}, {"smiles": "COc1ccc(N2CCN(C(=O)Cc3csc(NC(=O)Nc4ccccc4OC)n3)CC2)cc1", "Potency": "inconclusive: 11.2 µM [inhibitor, partial curve, poor fit]"}, {"smiles": "O=C(Nc1cccc(C(F)(F)F)c1)c1cccnc1N1CCN(CCO)CC1", "activity change, negative = inhibition": "inactive: -4.39%"}, {"smiles": "O=C(CSc1ccc(-c2ccccc2)nn1)Nc1ccc2c(c1)OCCO2", "Potency": "inconclusive: 1.46 µM [activator, partial curve]"}, {"smiles": "Cc1cc(=O)n2nc(N3CCC(C(=O)Nc4ccc(Br)c(C)c4)CC3)sc2n1", "activity change, negative = inhibition": "inactive: 19.3% [at 46.1 µM]"}, {"smiles": "CC(=O)Nc1ccc(N=c2cc([N+](=O)[O-])cc(Cl)n2O)cc1", "Potency": "inconclusive: 10 µM [inhibitor, partial curve, poor fit]"}, {"smiles": "C=CCn1c(O)c(C(CC)=NCCc2c[nH]c3ccccc23)c(=O)[nH]c1=O", "Potency": "inconclusive: 8.91 µM [inhibitor, partial curve, poor fit]"}, {"smiles": "N#CC1=C(S)N(c2ccccc2)C(c2ccc(-c3cccc(Cl)c3)o2)NC1=O", "note": "(stereo unspecified)", "activity change, negative = inhibition": "inactive: -3.58%"}, {"smiles": "COCCOC(=O)C1=C(C)NC(C)=C(C(=O)OC/C=C/c2ccccc2)C1c1cccc([N+](=O)[O-])c1", "note": "(stereo unspecified)", "Potency": "active: 8.2 µM"}, {"smiles": "Cc1ccc(NN2C(=O)C=C(c3ccc(Cl)cc3)C2=O)cc1", "Potency": "inconclusive: 12.6 µM [inhibitor, single point]"}, {"smiles": "CC[n+]1c(C)n(-c2ccccc2)c2ccc(NC(C)=O)cc21", "Potency": "inconclusive: 2.82 µM [inhibitor, full curve, poor fit]"}, {"smiles": "C/C(=N\\NC(=O)CCc1ccccc1)c1ccc(Br)cc1", "Potency": "inconclusive: 2.51 µM [inhibitor, full curve]"}, {"smiles": "N=c1ccn(Cc2cccc(Cl)c2)cc1", "Potency": "inconclusive: 15.8 µM [inhibitor, single point]"}, {"smiles": "Cc1cc(C)cc(NC(=O)c2oc3ccccc3c2COc2ccccc2)c1", "activity change, negative = inhibition": "inactive: -6.06%"}, {"smiles": "CCc1ccccc1N(CC)C(=O)c1cc2c(s1)-c1ccccc1SC2", "Potency": "inconclusive: 17.8 µM [inhibitor, single point]"}, {"smiles": "COc1ccc(-n2ncc(C(=O)NCc3cccs3)c2C2CCN(C(=O)OC(C)(C)C)CC2)cc1", "Potency": "inconclusive: 7.08 µM [inhibitor, full curve, poor fit]"}, {"smiles": "Cc1cccc(CNC(=O)C2CCN(c3nn4cc(-c5ccc(F)cc5)nc4s3)CC2)c1", "Potency": "inconclusive: 6.31 µM [activator, partial curve]"}, {"smiles": "COc1ccc(-c2nn(-c3ccccc3)cc2/C=C2/SC(=S)N(CCC(=O)O)C2=O)c(C)c1", "activity change, negative = inhibition": "inactive: 2.21% [at 46.1 µM]"}, {"smiles": "CNCC(C)COc1ccccc1OCc1ccccc1", "note": "(stereo unspecified)", "Potency": "inconclusive: 18.4 µM [inhibitor, single point]"}, {"smiles": "c1ccc(Nc2ccc3c4c(cccc24)CC3)cc1", "activity change, negative = inhibition": "inactive: 1.27%"}, {"smiles": "Cc1ccc(C)c(NC(=O)c2cnc(N3CCCC3)nc2C)c1", "Potency": "inconclusive: 35.5 µM [activator, single point]"}, {"smiles": "O=C(OCc1cc(=O)n2nc(C3CC3)sc2n1)c1cccc(NC(=O)c2ccccc2Cl)c1", "Potency": "inconclusive: 6.31 µM [activator, single point]"}, {"smiles": "CCOc1ccc2c(ccc(/C=C/c3cc(C)c4cccnc4c3O)[n+]2C)c1", "Potency": "inconclusive: 25.1 µM [inhibitor, single point]"}, {"smiles": "COc1ccc(-c2cn3c(n2)sc2cc(C(=O)NCCc4ccccc4)ccc23)cc1", "Potency": "inconclusive: 22.4 µM [inhibitor, single point]"}, {"smiles": "CCCCC(=O)NC(=S)Nc1c(C)cc(Br)cc1C", "Potency": "inconclusive: 23.1 µM [inhibitor, single point]"}, {"smiles": "CCc1cc(CNC(=O)c2cccc(OC3CCN(S(C)(=O)=O)CC3)c2)on1", "Potency": "inconclusive: 7.08 µM [inhibitor, partial curve, poor fit]"}]}]}
